According to PMC11015022:
Results are given in words; binding and its absence hold for the method and conditions named. Binding seen in cells or lysates may run through a third protein. Where a sequence is shown, tags or fusion partners need not be part of it.

Biological target: HSPA8 protein without the SBD domain (MYC-HSPA8 fragment) (mouse)
Test: co-IP; HEK293T cells co-transfected with FLAG- and MYC-tagged mouse constructs, lysate, Western blot

- binding: no binding
B1: FLAG-SPATA6 (protein, UniProt Q3U6K5 18-488)
chain: VTCPGVVLKDKEDIYLSICVFGQYKKTQCVPATFPLVFNARMVFEKVFPEAVDPGDVVAQLEYDTAVFELIQLVPPVGETLSTYDENTRDFMFPGPNQMSGHHDSNRQVTMRRISGLRGIAPKLEFSTTSVITECLISSRKCRTQDKFTYHSAPVEKSHGRLQCRTSRSQKKKSKSPERSKYCINTKNYEQPTISSKSHSPSPYTKRRMCELSEDTRRRLAHLNLGPYEFKKETDKPPFVIRHVDPPSPRTDNFFGSPGRDCERDGWVRMHSDHPHIGCCRSKDYKVIRSPHGRDFEDPFERCEEYLSPRTCSKPQHSARTLLVHSAPSTTPKHCASPVLNRASLRERFHSDWCSPPNCDEIHDRVKDVLKSHQAHARHLCDERDPEREDELELKRSLLYRDSAYDSDPEYSSFQRPRGSFHLDDGECWSNRAASCKGKSHRPVFENSMDKMYRNLYKKACSSVSHTQESF
